Experimental data taken from PMC8068362.
Results are given in words; binding and its absence hold for the method and conditions named. Binding seen in cells or lysates may run through a third protein. Some entries that bind do so weakly or less than the wild type. For some assays here: Sequences can lack the tags named with a protein. Values belong to the binder of their own block, whether it stands above or below them.

Protein sequences, listed by entry. Tags and fused reporters are not part of them.
UniProt Q9S775: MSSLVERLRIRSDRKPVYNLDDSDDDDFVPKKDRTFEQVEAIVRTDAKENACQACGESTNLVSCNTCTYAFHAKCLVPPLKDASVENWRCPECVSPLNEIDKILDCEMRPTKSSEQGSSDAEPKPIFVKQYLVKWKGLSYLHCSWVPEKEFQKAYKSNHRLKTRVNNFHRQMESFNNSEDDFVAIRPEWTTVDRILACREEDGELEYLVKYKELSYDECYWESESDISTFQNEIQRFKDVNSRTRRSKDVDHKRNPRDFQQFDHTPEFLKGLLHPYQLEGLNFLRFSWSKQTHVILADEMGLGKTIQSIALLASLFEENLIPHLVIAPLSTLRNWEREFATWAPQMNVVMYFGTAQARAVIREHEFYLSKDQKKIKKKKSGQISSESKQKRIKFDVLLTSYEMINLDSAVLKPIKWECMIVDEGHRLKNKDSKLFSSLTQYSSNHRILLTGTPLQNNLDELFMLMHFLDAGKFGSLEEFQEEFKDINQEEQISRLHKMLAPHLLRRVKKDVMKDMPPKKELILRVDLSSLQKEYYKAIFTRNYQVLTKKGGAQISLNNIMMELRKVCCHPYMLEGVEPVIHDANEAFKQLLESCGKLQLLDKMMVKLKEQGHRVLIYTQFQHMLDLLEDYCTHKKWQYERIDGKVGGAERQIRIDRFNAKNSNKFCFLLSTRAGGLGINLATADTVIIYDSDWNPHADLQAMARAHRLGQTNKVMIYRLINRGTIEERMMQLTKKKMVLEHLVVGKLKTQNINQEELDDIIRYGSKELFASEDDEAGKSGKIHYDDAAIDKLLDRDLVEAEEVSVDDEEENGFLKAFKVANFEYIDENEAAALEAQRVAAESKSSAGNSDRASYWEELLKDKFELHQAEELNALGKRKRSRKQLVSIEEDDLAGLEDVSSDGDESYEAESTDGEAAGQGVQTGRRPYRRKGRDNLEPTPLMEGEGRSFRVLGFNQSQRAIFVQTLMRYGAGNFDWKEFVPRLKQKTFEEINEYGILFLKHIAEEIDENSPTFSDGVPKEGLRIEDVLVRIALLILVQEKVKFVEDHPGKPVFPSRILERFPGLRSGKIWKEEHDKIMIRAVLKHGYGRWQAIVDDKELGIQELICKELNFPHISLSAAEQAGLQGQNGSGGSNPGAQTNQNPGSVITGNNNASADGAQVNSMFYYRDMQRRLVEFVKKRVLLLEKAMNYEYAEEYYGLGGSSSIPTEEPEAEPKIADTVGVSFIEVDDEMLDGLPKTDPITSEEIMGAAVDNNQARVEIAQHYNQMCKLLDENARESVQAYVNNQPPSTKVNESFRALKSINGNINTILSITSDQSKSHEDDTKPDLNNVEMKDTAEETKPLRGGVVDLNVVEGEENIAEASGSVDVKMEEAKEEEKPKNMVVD

Experiments:
[1] = target: Myc-PKL (PICKLE) (Arabidopsis thaliana) (UniProt Q9S775); test: co-IP; protein extracts of Arabidopsis protoplasts transfected with 35S::HA-RBR1 and 35S::myc-PKL; immunoprecipitated with anti-myc, blot with anti-HA; extraction buffer with 150 mM NaCl, 4 °C
[2] = target: YFPC-fPKL (full-length PKL) (Arabidopsis thaliana) (UniProt Q9S775); test: split reporter; BiFC with YFPN and YFPC fusions coexpressed in suspension-derived Arabidopsis protoplasts; confocal microscopy about 16 h post-transformation

binding [1]: binds
B1: HA-RBR1 (RETINOBLASTOMA-RELATED 1) (protein, UniProt Q9LKZ3 1-1013)
chain: MEEVQPPVTPPIEPNGKRSEASLLDICEKVLSLDGSTCDEALKLFTETKRILSASMSNIGSGTREEVERFWFAFILYSVKRLSVRKEADGLSVSGDNEFNLCQILRALKLNIVDFFKELPQFVVKAGSVLGELYGADWENRLQAKEVQANFVHLSLLSKYYKRGFREFFLTYDANAEKNSANSSTYLLDSYRFGWLLFLALRNHAFSRFKDLVTCSNGVVSILAILIIHVPCRFRNFSIQDSSRFVKKGDKGVDLVASLCKIYDASEDELRIVIDKANNLVETILKKKPSPASECQTDKLDNIDPDGLTYFEDLLEETSISTSLITLEKDYYDGKGELDERVFINEEDSLLGSGSLSAGAVNITGVKRKIDALSSPARTFISPLSPHKSPAAKTNGISGATKLAATPVSTAMTTAKWLRTVISPLLPKPSPGLEHFLKSCDRDITNDVTRRAHIILEAIFPNSSLGAQCGGGSLQAVDLMDDIWAEQRRLEACKLYYRVLEAMCKAEAQILHANNLNSLLTNERFHRCMLACSAELVLATHKTITMLFPAVLERTGITAFDLSKVIESFIRHEDSLPRELRRHLNSLEERLLESMVWEKGSSMYNSLIVARPSLALEINQLGLLAEPMPSLDAIAALINFSDGANHASSVQKHETCPGQNGGIRSPKRLCTDYRSILVERNSFTSPVKDRLLALGNVKSKMLPPPLQSAFASPTRPNPGGGGETCAETGINIFFTKINKLAAVRINGMVERLQLSQQIRESVYCFFQHVLAQRTSLLFSRHIDQIILCCFYGVAKISQMSLTFREIIYNYRKQPQCKPLVFRSVYVDALQCRRQGRIGPDHVDIITFYNEIFIPAVKPLLVELGPVRNDRAVEANNKPEGQCPGSPKVSVFPSVPDMSPKKVSAVHNVYVSPLRGSKMDALISHSTKSYYACVGESTHAYQSPSKDLSAINNRLNNSSSNRKRTLNFDAEAGMVSDSMVANSLNLQNQNQNQNGSDASSSGGAAPLKTEPTDS

binding [2]: binds
B2: YFPN-RBR1 (protein, UniProt Q9LKZ3 1-1013)
chain: B1 chain
